# Laboratory results from paper PMC7819943, “Rice protein-binding microarrays: a tool to detect cis-acting elements near promoter regions in rice”.
# Protein sequences, listed by entry. Tags and fused reporters are not part of them.
# UniProt Q0JBA9, entry or part of it: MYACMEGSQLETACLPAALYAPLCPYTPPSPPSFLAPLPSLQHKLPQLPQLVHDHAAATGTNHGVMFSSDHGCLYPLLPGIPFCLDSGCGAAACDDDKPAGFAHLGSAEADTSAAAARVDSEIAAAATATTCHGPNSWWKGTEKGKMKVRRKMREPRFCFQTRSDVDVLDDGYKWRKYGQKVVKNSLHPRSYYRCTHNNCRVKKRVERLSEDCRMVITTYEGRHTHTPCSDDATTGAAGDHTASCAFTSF
# Some of the results follow.
# Molecular target: OsWRKY34 (Oryza sativa, UniProt Q0JBA9 1-250)
# Assay: protein-binding microarray (RPBM); PBS, 2% BSA, 51.3 ng/ul salmon testes DNA, 50 uM zinc acetate, 200 nM TF, 25 C, 1 h; high values mean tight binding
# Conditions: protein: recombinant; tags: N-terminal polyhistidine and DsRed monomer fusion (pET32a); label: CyDye5-dUTP incorporated in the synthesized complementary strand; 3' TTTTT single-stranded linker to array surface; dsDNA, one strand shown
# In short: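 Ni–NTA purification followed expression in E. coli BL21-CodonPlus of transcription factors fused N-terminally to a polyhistidine tag and DsRed. At 200 nM in PBS with 2% BSA, salmon testes DNA and 50 µM zinc acetate, the protein was incubated for 1 h at 25 °C with a custom Agilent array that had been primer-extended with Cy5-dUTP and blocked with 2% BSA. After washing, the array was read on an Axon 4000B scanner. The binding signal is per-feature fluorescence intensity in arbitrary units.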
row,Sequence,binding signal
1,AATCCACTCCCACCACCAAGCGCGAGCTCGATTATTTTTTCGGAGTCACCTAGTGCAG,10500 fluorescence intensity (a.u.)
2,CCCCAGCACCAACTTTGGTCCACTCCACATTCCAATCCTCCGGAGTCACCTAGTGCAG,10500 fluorescence intensity (a.u.)
3,GCTTCTTCTTGTATGTATACAGCTATCTATATTTTCTTAGCGGAGTCACCTAGTGCAG,10200 fluorescence intensity (a.u.)
4,CGCTATGTCAACTGGGCTTTGTTTGGGTTTTGCATTTTCTCGGAGTCACCTAGTGCAG,13300 fluorescence intensity (a.u.)
5,ACGATTTTATCTCATCCGTTTGGCCCTGCTGCTGCTGTGCCGGAGTCACCTAGTGCAG,8170 fluorescence intensity (a.u.)
6,GATTCATCGCCAGCGTCGCCGTATCTTCCTCGACTACACTCGGAGTCACCTAGTGCAG,10300 fluorescence intensity (a.u.)
7,TCGCGCGCTTGGCTCTTCTCGATCTCTCTCTCGGCTTCTCCGGAGTCACCTAGTGCAG,11200 fluorescence intensity (a.u.)
8,TGCCTGCCTGCCTGCCTCATGTACATATAGCTACCCGAACCGGAGTCACCTAGTGCAG,8820 fluorescence intensity (a.u.)
9,GGATTTCACAGCTTCTAGCTTCTAATTCATTTTCTGGATTCGGAGTCACCTAGTGCAG,10200 fluorescence intensity (a.u.)
10,ACATTGCTGAGACTGTACCACCACCACTGCATGATATACACGGAGTCACCTAGTGCAG,10700 fluorescence intensity (a.u.)
11,TAATGGTTTCTACTCGCGCACAACTCCGCTTCTTTTATAACGGAGTCACCTAGTGCAG,8280 fluorescence intensity (a.u.)
12,TAGCTTCAACCCCAGCATCCCTGACCTTCTTTTCTTCTGTCGGAGTCACCTAGTGCAG,8770 fluorescence intensity (a.u.)
13,ACCTACTCTCTTCTCCTGCAGTCCAGCTCTCGGTTCCTTGCGGAGTCACCTAGTGCAG,8180 fluorescence intensity (a.u.)
14,CGCTAGGATCGCCTTTTTTCCGCTGCTGCTACTTTTGTTTCGGAGTCACCTAGTGCAG,11100 fluorescence intensity (a.u.)
15,TTAGGGCTTTCTCCTCGTGCTCCCTGCGATTGCGCCGCCCCGGAGTCACCTAGTGCAG,8270 fluorescence intensity (a.u.)
16,GACCTCGCCGTCGCCGTCGCCGCCGCCGCCGCCGCCATGGCGGAGTCACCTAGTGCAG,9900 fluorescence intensity (a.u.)
17,AGGACCCTTATTTAGTAGTATAATTCTTTCCGTCCCAATTCGGAGTCACCTAGTGCAG,9400 fluorescence intensity (a.u.)
18,CCGGCGCCGTCCTTCACCGCCTAGCTCGATTTGCTTTTCACGGAGTCACCTAGTGCAG,8410 fluorescence intensity (a.u.)
19,CACCAAGCAGTCCCCTGTGTTCATCTTCTGAAGTCTGATTCGGAGTCACCTAGTGCAG,8360 fluorescence intensity (a.u.)
20,ATCTTCCTTGTACACACATGCACATCTCTCACTCAACTCACGGAGTCACCTAGTGCAG,8710 fluorescence intensity (a.u.)
21,ATTTGCTTTTCTTCTTAGTTCTTACTTCCATTGCTTTAGGCGGAGTCACCTAGTGCAG,9000 fluorescence intensity (a.u.)

# Quoted at random: 3 entries already listed.
row,Sequence,binding signal
16,GACCTCGCCGTCGCCGTCGCCGCCGCCGCCGCCGCCATGGCGGAGTCACCTAGTGCAG,9900 fluorescence intensity (a.u.)
20,ATCTTCCTTGTACACACATGCACATCTCTCACTCAACTCACGGAGTCACCTAGTGCAG,8710 fluorescence intensity (a.u.)
8,TGCCTGCCTGCCTGCCTCATGTACATATAGCTACCCGAACCGGAGTCACCTAGTGCAG,8820 fluorescence intensity (a.u.)

# Next part:

row,Sequence,binding signal
1,TACACCGGTAAATTCGGTCATTTCTCTCGGTTAACCGAACCGGAGTCACCTAGTGCAG,9790 fluorescence intensity (a.u.)
2,TTGGTGTGCATGTAGCAGGAGGGGCTGATACATTTATGATCGGAGTCACCTAGTGCAG,8940 fluorescence intensity (a.u.)
3,TTCGACTTCCTCGTCTCGTTGAGCGCGACTTCGGCTTGATCGGAGTCACCTAGTGCAG,10300 fluorescence intensity (a.u.)
4,GGTGTTTGACCCCAAGACTCCACTCCATCTCTCTCCATGTCGGAGTCACCTAGTGCAG,11600 fluorescence intensity (a.u.)
5,CTTATTATTTCTCTCTTCTTACTCTATCGCCGCTAGAGAACGGAGTCACCTAGTGCAG,8500 fluorescence intensity (a.u.)
6,GGTTGGGTACGGGAAAAATATAATATATACCGGAAGCAGACGGAGTCACCTAGTGCAG,8140 fluorescence intensity (a.u.)
7,CCAATTTAACTCTGTTTTTGTCACTTTGCTTATTTGACTCCGGAGTCACCTAGTGCAG,12200 fluorescence intensity (a.u.)
8,CCCACCGTAGACTAGTCAATCCATCCATCCATCCGCCCACCGGAGTCACCTAGTGCAG,8720 fluorescence intensity (a.u.)
9,ACGGCTCCACGATATATCTCTCGCTTGATAGCTTTTCCAACGGAGTCACCTAGTGCAG,9160 fluorescence intensity (a.u.)
10,GATATGCACAGAGCAGGTAGTGTTTGACAACTTTGTTTCTCGGAGTCACCTAGTGCAG,9490 fluorescence intensity (a.u.)
11,CTTTAGTTAAAGTCAAAGTGCTTCAAGTTTGACTAAGTTTCGGAGTCACCTAGTGCAG,9150 fluorescence intensity (a.u.)
12,TCACTGCCTCACCAACCAGTCACCGCCCTTATCCTTTTTCCGGAGTCACCTAGTGCAG,10900 fluorescence intensity (a.u.)
13,ACTCTCATTCCTTTTCTAATTTTGGATTTTATTTTATTTTCGGAGTCACCTAGTGCAG,15000 fluorescence intensity (a.u.)
14,AATGCGGTGTGTGTTATACTCTAGTTAGTCATATGATCCACGGAGTCACCTAGTGCAG,9330 fluorescence intensity (a.u.)
15,GAGGGAGTATTATCTTCTGAACATATGTTTGACCATTGGACGGAGTCACCTAGTGCAG,8940 fluorescence intensity (a.u.)
16,CTGAGTTCCCATTAATTGAAGTTTCCATTTCTGTTATTTTCGGAGTCACCTAGTGCAG,9680 fluorescence intensity (a.u.)
17,TTCGCATCTCAACCAATCACAATCTTCTACCACTTAATTCCGGAGTCACCTAGTGCAG,8750 fluorescence intensity (a.u.)
18,ATACCATCATCCTATATTTTATTAATATCTTACAACTAACCGGAGTCACCTAGTGCAG,8870 fluorescence intensity (a.u.)
19,CAGTGTACGAGCTGGTGTGTGTTTCTCTCCGTTTCGTTTCCGGAGTCACCTAGTGCAG,11700 fluorescence intensity (a.u.)
20,CCAGCTTCAAGCCTTCAAACATGGGGTTTGCTACAGTGTACGGAGTCACCTAGTGCAG,8240 fluorescence intensity (a.u.)
21,CTATCTCTGCTTGAACATACCACTACCTCAGTATTCTCTACGGAGTCACCTAGTGCAG,8270 fluorescence intensity (a.u.)
